Drawing on PubChem BioAssay AID180 (DTP/NCI, 2004), this text covers T/C and survivor count for nine molecules.

This experiment concerns BDF1 mice, Adenocarcinoma 755 s.c., tumor weight T/C. Briefly: NCI In Vivo Anticancer Drug Screen. Data for tumor model Adenocarcinoma 755 (subcutaneous) in B6D2F1 (BDF1) mice. The settings on record: T/C endpoint: mean tumor weight, schedule: Q01DX011 (ip), higher T/C = larger tumour; for T/C: evaluated on day 12. The method, then: The antitumor activity of compounds was measured in mice bearing transplantable tumors. Survival or tumor size were measured and the results are expressed as the measurement made in the treated group (T) divided by the measurement made in the vehicle treated control group (C). The tumor model used in this assay is Adenocarcinoma 755 (subcutaneous) in B6D2F1 (BDF1) mice

The mark [1] stands for this setting: dose: 8.0 mg/kg/injection, vehicle: methylcellulose (MC).
Where [2] appears, read: dose: 16.0 mg/kg/injection, vehicle: methylcellulose (MC).
[3] abbreviates: dose: 35.0 mg/kg/injection, vehicle: methylcellulose (MC).

The list shows only some results of the screen, not a fair sample: its compounds were picked by chemical class. Not every dose and run of a compound is shown. T/C is the treated group as % of the vehicle group. Schedules are NCI's codes, read here as Q, the interval in days (D) or hours (H), X, the number of doses. Some T/C values carry the count of animals alive at the toxicity check; without a count or a note in brackets, all were alive then. Some entries were tested several times; the results are listed from low to high. Some entries give survivors of the animals treated and no T/C: the source holds a T/C of zero for them, seemingly a mark for toxic or unscored doses. Survivors were counted at the toxicity check; its day is shown where the source gives one, and later deaths do not show.

Turning to `S=P1(N(CCCl)CCCl)NCCCO1` (configuration not stated), the T/C was 82 % of control (dose: 13.0 mg/kg/injection, vehicle: methylcellulose (MC)); 108 % of control [9 of 10 alive] (dose: 26.0 mg/kg/injection, vehicle: methylcellulose (MC)); 99 % of control (dose: 53.0 mg/kg/injection, vehicle: methylcellulose (MC)); 80 % of control [9 of 10 alive] (dose: 116.0 mg/kg/injection, vehicle: methylcellulose (MC)); 88 % of control [8 of 10 alive] (dose: 200.0 mg/kg/injection, vehicle: methylcellulose (MC)). Further, the survivor count (dose: 150.0 mg/kg/injection, vehicle: methylcellulose (MC)) was 6 of 10.

As to `O[C@H](CNCCCl)[C@H](O)CNCCCl`, the T/C is 65 % of control (dose: 0.88 mg/kg/injection, vehicle: saline); 46 % of control (dose: 1.75 mg/kg/injection, vehicle: carboxymethylcellulose (CMC)); 60 % of control (dose: 1.75 mg/kg/injection, vehicle: saline); 59 % of control [9 of 10 alive] (dose: 3.5 mg/kg/injection, vehicle: carboxymethylcellulose (CMC)); 21 % of control (dose: 3.5 mg/kg/injection, vehicle: saline); 58 % of control (dose: 7.0 mg/kg/injection, vehicle: carboxymethylcellulose (CMC)). The T/C was 8 % of control [9 of 10 alive] (dose: 7.0 mg/kg/injection, vehicle: saline); 103 % of control [9 of 10 alive] (dose: 14.0 mg/kg/injection, vehicle: carboxymethylcellulose (CMC)); 3 % of control (dose: 14.0 mg/kg/injection, vehicle: saline); 21 % of control [9 of 10 alive] (dose: 28.0 mg/kg/injection, vehicle: carboxymethylcellulose (CMC)).

Consider `CCOC(=O)COc1ccc(N(CCCl)CCCl)cc1`, for which the T/C was 31, 51, 54 % of control (dose: 2.0 mg/kg/injection, vehicle: methylcellulose (MC)); 12, 20 [7 of 10 alive], 29 % of control (dose: 4.0 mg/kg/injection, vehicle: methylcellulose (MC)); 9 and 11 % of control under setting [1]; 6 % of control [7 of 10 alive] under setting [2]. Further, the survivor count is reported as 6 of 10 under setting [1] and 3 of 10 under setting [2].

Regarding `COc1cccc2c1OCCN2CCCl`, the T/C (dose: 56.0 mg/kg/injection, vehicle: methylcellulose (MC)) is 80 % of control [8 of 10 alive]; the T/C (dose: 113.0 mg/kg/injection, vehicle: methylcellulose (MC)) was 100 % of control; the T/C (dose: 225.0 mg/kg/injection, vehicle: methylcellulose (MC)) is 62 % of control [9 of 10 alive].

As to `O=c1[nH]c(=O)c2[nH]c(/N=N\N(CCCl)CCCl)nc2[nH]1`, the T/C is 128 % of control (dose: 18.75 mg/kg/injection, vehicle: saline); 147 % of control (dose: 37.5 mg/kg/injection, vehicle: saline); 37 % of control (dose: 75.0 mg/kg/injection, vehicle: saline); 29 [8 of 10 alive] and 131 % of control (dose: 150.0 mg/kg/injection, vehicle: saline); 51 % of control [7 of 10 alive] (dose: 300.0 mg/kg/injection, vehicle: saline).

Consider `O=C(O)/C=C\c1cccc(N(CCCl)CCCl)c1`, for which the T/C was 103 % of control (dose: 1.25 mg/kg/injection, vehicle: carboxymethylcellulose (CMC)); 78 % of control [9 of 10 alive] (dose: 2.5 mg/kg/injection, vehicle: carboxymethylcellulose (CMC)); 89 % of control (dose: 5.0 mg/kg/injection, vehicle: carboxymethylcellulose (CMC)); 69 % of control under setting [1]; 90 % of control [8 of 10 alive] (dose: 10.0 mg/kg/injection, vehicle: carboxymethylcellulose (CMC)); 29 % of control (dose: 11.25 mg/kg/injection, vehicle: methylcellulose (MC)). The T/C is 106 % of control under setting [2]; 34 % of control [8 of 10 alive] (dose: 22.5 mg/kg/injection, vehicle: methylcellulose (MC)); 2 % of control (dose: 32.0 mg/kg/injection, vehicle: methylcellulose (MC)). The survivor count (dose: 90.0 mg/kg/injection, vehicle: methylcellulose (MC)) was 3 of 10.

In the case of `CC1CCNP(=O)(N(CCCl)CCCl)O1` (configuration not stated), the T/C reads like this: (dose: 12.0 mg/kg/injection, vehicle: saline) 105 % of control; (dose: 25.0 mg/kg/injection, vehicle: saline) 71 % of control; (dose: 50.0 mg/kg/injection, vehicle: saline) 32 % of control; (dose: 100.0 mg/kg/injection, vehicle: saline) 2 [7 of 10 alive] and 3 % of control.

In the case of `O=C(O)/C=C\c1ccccc1N(CCCl)CCCl`, the T/C (dose: 4.4 mg/kg/injection, vehicle: methylcellulose (MC)) is 51 and 66 % of control; the T/C (dose: 8.75 mg/kg/injection, vehicle: methylcellulose (MC)) was 74 [9 of 10 alive] and 99 % of control; the T/C (dose: 17.5 mg/kg/injection, vehicle: methylcellulose (MC)) was 35 and 75 % of control [9 of 10 alive]; the T/C under setting [3] is 14 % of control. The survivor count under setting [3] was 3 of 10.

As to `O=P(Nc1ncccn1)(N1CC1)N1CC1`, the T/C was 53 and 54 % of control (dose: 3.8 mg/kg/injection, vehicle: saline); 10 and 24 % of control (dose: 7.5 mg/kg/injection, vehicle: saline). In addition, under “dose: 30.0 mg/kg/injection, vehicle: saline”, the survivor count was 0 of 10.
